Data reported in the supplement of paper PMC8728848.
The other results are listed elsewhere or left out.

Key:
Test in all cases: glycan array binding signal (z-score within array); higher = stronger binding
Conditions in all cases: glycan notation: IUPAC condensed, linker removed
[1] = target: Fuc(a1-2)[Gal(a1-3)]Gal(b1-4)GlcNAc(b1-2)Man(a1-3)[Fuc(a1-2)[Gal(a1-3)]Gal(b1-4)GlcNAc(b1-2)Man(a1-6)]Man(b1-4)GlcNAc(b1-4)GlcNAc
Method in brief: (§1)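 Arrays were curated from the Consortium for Functional Glycomics database, 3228 in total, and kept only where the protein sequence was available. Binding is expressed as a within-array Z-score. This score was averaged across arrays of the same protein sequence at different concentrations or buffers and across linkers, and negative values can be read as non-binding.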

[2] = target: Fuc(a1-2)[Gal(a1-3)]Gal(b1-4)GlcNAc(b1-2)Man(a1-3)[Fuc(a1-2)[Gal(a1-3)]Gal(b1-4)GlcNAc(b1-2)Man(a1-6)]Man(b1-4)GlcNAc(b1-4)[Fuc(a1-6)]GlcNAc
Method in brief: as §1

[3] = target: Fuc(a1-2)[Gal(a1-3)]Gal(b1-4)GlcNAc(b1-3)GalNAc
Method in brief: as §1

[4] = target: Fuc(a1-2)[Gal(a1-3)]Gal(b1-4)GlcNAc(b1-3)[Fuc(a1-2)[Gal(a1-3)]Gal(b1-4)GlcNAc(b1-6)]GalNAc
Method in brief: as §1

[5] = target: Fuc(a1-2)[Gal(a1-3)]Gal(b1-4)GlcNAc(b1-6)GalNAc
Method in brief: as §1

[6] = target: Fuc(a1-2)[Gal(a1-3)]Gal(b1-4)[Fuc(a1-3)]Glc
Method in brief: as §1

[7] = target: Fuc(a1-2)[Gal(a1-3)]Gal(b1-4)[Fuc(a1-3)]GlcNAc
Method in brief: as §1

[8] = target: Fuc(a1-2)[Gal(a1-3)]Gal(b1-4)[Fuc(a1-3)]GlcNAc(b1-3)GalNAc
Method in brief: as §1

[9] = target: Fuc(a1-2)[Gal(a1-4)]Gal(b1-4)GlcNAc
Method in brief: as §1

[10] = target: Fuc(a1-2)[GalNAc(a1-3)]Gal
Method in brief: as §1

[11] = target: Fuc(a1-2)[GalNAc(a1-3)]Gal(b1-3)GalNAc(a1-3)[Fuc(a1-2)]Gal(b1-4)GlcNAc
Method in brief: as §1

[12] = target: Fuc(a1-2)[GalNAc(a1-3)]Gal(b1-3)GalNAc(b1-3)Gal(a1-4)Gal(b1-4)Glc
Method in brief: as §1

[13] = target: Fuc(a1-2)[GalNAc(a1-3)]Gal(b1-3)GlcNAc
Method in brief: as §1

[14] = target: Fuc(a1-2)[GalNAc(a1-3)]Gal(b1-3)GlcNAc(b1-2)Man(a1-3)[Fuc(a1-2)[GalNAc(a1-3)]Gal(b1-3)GlcNAc(b1-2)Man(a1-6)]Man(b1-4)GlcNAc(b1-4)GlcNAc
Method in brief: as §1

[15] = target: Fuc(a1-2)[GalNAc(a1-3)]Gal(b1-3)GlcNAc(b1-2)Man(a1-3)[Fuc(a1-2)[GalNAc(a1-3)]Gal(b1-3)GlcNAc(b1-2)Man(a1-6)]Man(b1-4)GlcNAc(b1-4)[Fuc(a1-6)]GlcNAc
Method in brief: as §1

[16] = target: Fuc(a1-2)[GalNAc(a1-3)]Gal(b1-3)GlcNAc(b1-3)GalNAc
Method in brief: as §1

[17] = target: Fuc(a1-2)[GalNAc(a1-3)]Gal(b1-3)GlcNAc(b1-6)GalNAc
Method in brief: as §1

[18] = target: Fuc(a1-2)[GalNAc(a1-3)]Gal(b1-4)Glc
Method in brief: as §1

[19] = target: Fuc(a1-2)[GalNAc(a1-3)]Gal(b1-4)GlcNAc
Method in brief: as §1

[20] = target: Fuc(a1-2)[GalNAc(a1-3)]Gal(b1-4)GlcNAc(b1-2)Man
Method in brief: as §1

[21] = target: Fuc(a1-2)[GalNAc(a1-3)]Gal(b1-4)GlcNAc(b1-2)Man(a1-3)[Fuc(a1-2)[GalNAc(a1-3)]Gal(b1-4)GlcNAc(b1-2)Man(a1-6)]Man(b1-4)GlcNAc(b1-4)GlcNAc
Method in brief: as §1

[22] = target: Fuc(a1-2)[GalNAc(a1-3)]Gal(b1-4)GlcNAc(b1-2)Man(a1-3)[Fuc(a1-2)[GalNAc(a1-3)]Gal(b1-4)GlcNAc(b1-2)Man(a1-6)]Man(b1-4)GlcNAc(b1-4)[Fuc(a1-6)]GlcNAc
Method in brief: as §1

[23] = target: Fuc(a1-2)[GalNAc(a1-3)]Gal(b1-4)GlcNAc(b1-3)Gal(b1-4)GlcNAc
Method in brief: as §1

[24] = target: Fuc(a1-2)[GalNAc(a1-3)]Gal(b1-4)GlcNAc(b1-3)Gal(b1-4)GlcNAc(b1-3)Gal(b1-4)GlcNAc
Method in brief: as §1

[25] = target: Fuc(a1-2)[GalNAc(a1-3)]Gal(b1-4)GlcNAc(b1-3)GalNAc
Method in brief: as §1

[26] = target: Fuc(a1-2)[GalNAc(a1-3)]Gal(b1-4)GlcNAc(b1-3)[Fuc(a1-2)[GalNAc(a1-3)]Gal(b1-4)GlcNAc(b1-6)]GalNAc
Method in brief: as §1

[27] = target: Fuc(a1-2)[GalNAc(a1-3)]Gal(b1-4)GlcNAc(b1-6)GalNAc
Method in brief: as §1

[28] = target: Fuc(a1-2)[GalNAc(a1-3)]Gal(b1-4)[Fuc(a1-3)]GlcNAc
Method in brief: as §1

[29] = target: Fuc(a1-2)[GalNAc(a1-3)]Gal(b1-4)[Fuc(a1-3)]GlcNAc(b1-3)GalNAc
Method in brief: as §1

[30] = target: Fuc(a1-2)[GalNAc(a1-4)]Gal(b1-4)GlcNAc
Method in brief: as §1

[31] = target: Fuc(a1-2)[GalNAc(b1-3)]Gal
Method in brief: as §1

Fuc(a1-3)GlcNAc = target: Fuc(a1-3)GlcNAc
Method in brief: as §1

[32] = target: Fuc(a1-3)[Gal(b1-4)]Glc6S
Method in brief: as §1

[33] = target: Fuc(a1-3)[Gal(b1-4)]GlcNAc
Method in brief: as §1

[34] = target: Fuc(a1-3)[Gal(b1-4)]GlcNAc(b1-2)Man
Method in brief: as §1

[35] = target: Fuc(a1-3)[Gal(b1-4)]GlcNAc(b1-2)Man(a1-3)[Fuc(a1-3)[Gal(b1-4)]GlcNAc(b1-2)Man(a1-6)]Man(b1-4)GlcNAc(b1-4)GlcNAc
Method in brief: as §1

[36] = target: Fuc(a1-3)[Gal(b1-4)]GlcNAc(b1-2)Man(a1-3)[Fuc(a1-3)[Gal(b1-4)]GlcNAc(b1-2)Man(a1-6)]Man(b1-4)GlcNAc(b1-4)[Fuc(a1-6)]GlcNAc
Method in brief: as §1

B1: SUN4 (Saccharomyces cerevisiae), P53616 (protein)
chain: MGSSHHHHHHSSGLVPRGSHNGSIYGDLADFSGPYEKFEDGTIPCGQFPSGQGVIPISWLDEGGWSGVENTDTSTGGSCKEGSYCSYACQPGMSKTQWPSDQPSDGRSIGGLLCKDGYLYRSNTDTDYLCEWGVDAAYVVSELSNDVAICRTDYPGTENMVIPTYVQAGDSLPLTVVDQDTYYTWQGLKTSAQYYVNNAGISVEDACVWGSSSSGVGNWAPLNFGAGSSDGVAYLSLIPNPNNGNALNFNVKIVAADDSSTVNGECIYENGSFSGGSDGCTVSVTAGKAKFVLYN
glycan array binding signal (z-score) [1]: 0.938 | glycan array binding signal (z-score) [2]: -0.89 | glycan array binding signal (z-score) [3]: -0.769 | glycan array binding signal (z-score) [4]: -0.113 | glycan array binding signal (z-score) [5]: -0.415 | glycan array binding signal (z-score) [6]: -0.243 | glycan array binding signal (z-score) [7]: 0.64 | glycan array binding signal (z-score) [8]: -0.487 | glycan array binding signal (z-score) [9]: 0.085 | glycan array binding signal (z-score) [10]: -0.121 | glycan array binding signal (z-score) [11]: 0.46 | glycan array binding signal (z-score) [12]: -0.49 | glycan array binding signal (z-score) [13]: -0.069 | glycan array binding signal (z-score) [14]: 0.798 | glycan array binding signal (z-score) [15]: 1.85 | glycan array binding signal (z-score) [16]: -0.065 | glycan array binding signal (z-score) [17]: -0.525 | glycan array binding signal (z-score) [18]: -0.935 | glycan array binding signal (z-score) [19]: -0.592 | glycan array binding signal (z-score) [20]: 0.337 | glycan array binding signal (z-score) [21]: -0.083 | glycan array binding signal (z-score) [22]: -0.441 | glycan array binding signal (z-score) [23]: -0.267 | glycan array binding signal (z-score) [24]: -0.664 | glycan array binding signal (z-score) [25]: -0.052 | glycan array binding signal (z-score) [26]: -0.426 | glycan array binding signal (z-score) [27]: -0.607 | glycan array binding signal (z-score) [28]: -0.591 | glycan array binding signal (z-score) [29]: -0.671 | glycan array binding signal (z-score) [30]: -0.396 | glycan array binding signal (z-score) [31]: -0.107 | glycan array binding signal (z-score) (Fuc(a1-3)GlcNAc): -1.58 | glycan array binding signal (z-score) [32]: -0.292 | glycan array binding signal (z-score) [33]: 0.127 | glycan array binding signal (z-score) [34]: -1.22 | glycan array binding signal (z-score) [35]: -0.567 | glycan array binding signal (z-score) [36]: 0.398
